Source: publication PMC7476715
These are yes or no findings as the source states them, for the method shown. Binding seen in cells or lysates may run through a third protein. Some results given as binding are weak or reduced against the parent protein; the word gives no strength.

Sequences of proteins named here, by UniProt entry; tags and fusion partners are left off.
UniProt P11881: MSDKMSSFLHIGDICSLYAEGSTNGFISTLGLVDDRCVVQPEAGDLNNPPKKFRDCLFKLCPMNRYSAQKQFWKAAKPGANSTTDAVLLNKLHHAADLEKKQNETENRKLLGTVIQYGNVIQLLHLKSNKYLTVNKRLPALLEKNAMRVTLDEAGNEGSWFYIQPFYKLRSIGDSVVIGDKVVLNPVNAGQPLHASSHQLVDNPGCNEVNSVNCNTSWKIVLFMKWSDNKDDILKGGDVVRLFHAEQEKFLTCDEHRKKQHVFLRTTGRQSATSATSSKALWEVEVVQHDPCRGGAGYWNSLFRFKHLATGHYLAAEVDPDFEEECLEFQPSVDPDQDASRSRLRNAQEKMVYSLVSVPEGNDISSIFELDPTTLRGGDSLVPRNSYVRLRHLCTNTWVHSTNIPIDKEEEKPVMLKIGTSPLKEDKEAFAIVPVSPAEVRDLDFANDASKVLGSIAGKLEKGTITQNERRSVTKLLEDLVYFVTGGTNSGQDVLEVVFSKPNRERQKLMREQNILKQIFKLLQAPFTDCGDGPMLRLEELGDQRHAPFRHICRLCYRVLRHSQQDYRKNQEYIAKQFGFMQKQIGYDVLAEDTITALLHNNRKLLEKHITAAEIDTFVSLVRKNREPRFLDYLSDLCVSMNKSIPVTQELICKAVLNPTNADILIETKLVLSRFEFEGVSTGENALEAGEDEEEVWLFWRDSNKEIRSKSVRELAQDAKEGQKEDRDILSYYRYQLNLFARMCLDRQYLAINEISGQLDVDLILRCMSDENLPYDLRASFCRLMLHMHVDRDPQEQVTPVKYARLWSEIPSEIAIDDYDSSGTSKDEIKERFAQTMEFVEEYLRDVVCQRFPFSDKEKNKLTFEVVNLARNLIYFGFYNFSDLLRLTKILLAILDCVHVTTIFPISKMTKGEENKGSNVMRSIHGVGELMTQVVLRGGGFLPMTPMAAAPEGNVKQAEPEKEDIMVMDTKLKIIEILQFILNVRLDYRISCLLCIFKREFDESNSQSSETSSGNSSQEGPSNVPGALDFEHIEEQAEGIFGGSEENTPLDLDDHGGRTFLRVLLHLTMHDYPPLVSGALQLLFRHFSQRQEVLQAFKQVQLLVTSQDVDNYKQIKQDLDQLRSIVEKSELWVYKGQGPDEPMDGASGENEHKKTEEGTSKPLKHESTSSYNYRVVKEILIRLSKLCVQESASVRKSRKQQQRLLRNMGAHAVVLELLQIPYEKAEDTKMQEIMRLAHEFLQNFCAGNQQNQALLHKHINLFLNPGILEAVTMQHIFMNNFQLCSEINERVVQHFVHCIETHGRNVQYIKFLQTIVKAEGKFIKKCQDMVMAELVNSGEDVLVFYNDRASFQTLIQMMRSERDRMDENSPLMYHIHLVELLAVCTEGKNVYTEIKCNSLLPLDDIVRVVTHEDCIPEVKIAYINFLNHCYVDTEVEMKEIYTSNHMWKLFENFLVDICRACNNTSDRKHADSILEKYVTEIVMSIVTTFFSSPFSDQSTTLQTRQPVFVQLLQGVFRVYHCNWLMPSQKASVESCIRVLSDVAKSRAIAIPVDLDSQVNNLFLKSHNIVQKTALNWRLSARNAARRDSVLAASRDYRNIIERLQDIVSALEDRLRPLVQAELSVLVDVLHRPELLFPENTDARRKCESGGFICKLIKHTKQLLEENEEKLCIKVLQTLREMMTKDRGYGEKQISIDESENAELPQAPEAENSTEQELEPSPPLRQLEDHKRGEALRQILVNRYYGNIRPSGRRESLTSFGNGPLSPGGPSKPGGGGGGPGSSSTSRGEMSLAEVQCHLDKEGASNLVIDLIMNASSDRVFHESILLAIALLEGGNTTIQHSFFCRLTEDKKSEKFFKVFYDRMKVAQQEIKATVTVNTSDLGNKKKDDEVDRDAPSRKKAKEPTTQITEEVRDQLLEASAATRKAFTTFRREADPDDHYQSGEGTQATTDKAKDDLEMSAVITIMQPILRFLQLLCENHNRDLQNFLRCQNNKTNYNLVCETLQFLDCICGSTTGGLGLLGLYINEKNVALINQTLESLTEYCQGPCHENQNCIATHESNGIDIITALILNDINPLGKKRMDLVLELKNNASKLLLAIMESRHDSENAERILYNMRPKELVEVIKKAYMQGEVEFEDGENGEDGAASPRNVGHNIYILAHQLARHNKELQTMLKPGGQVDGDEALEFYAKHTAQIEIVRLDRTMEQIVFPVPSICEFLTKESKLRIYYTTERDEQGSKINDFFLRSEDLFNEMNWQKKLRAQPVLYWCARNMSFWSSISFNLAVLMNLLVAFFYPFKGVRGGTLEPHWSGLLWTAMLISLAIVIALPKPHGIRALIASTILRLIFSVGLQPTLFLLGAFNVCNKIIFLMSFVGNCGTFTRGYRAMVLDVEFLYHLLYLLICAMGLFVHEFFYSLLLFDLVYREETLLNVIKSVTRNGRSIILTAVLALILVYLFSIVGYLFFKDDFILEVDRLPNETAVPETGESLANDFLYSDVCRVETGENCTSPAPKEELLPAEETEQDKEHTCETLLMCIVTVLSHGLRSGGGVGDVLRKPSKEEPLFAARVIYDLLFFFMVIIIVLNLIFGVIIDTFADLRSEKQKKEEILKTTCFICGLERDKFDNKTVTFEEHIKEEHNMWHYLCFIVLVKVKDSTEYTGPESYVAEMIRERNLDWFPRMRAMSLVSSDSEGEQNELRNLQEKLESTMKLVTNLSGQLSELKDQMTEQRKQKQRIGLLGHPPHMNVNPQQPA

Target: T1, Contactin-associated protein-like 2 (Caspr2), endogenous in mouse cerebellar synaptosomes (mouse (endogenous in cerebellar synaptosomes)) (UniProt Q9CPW0)
T1 sequence: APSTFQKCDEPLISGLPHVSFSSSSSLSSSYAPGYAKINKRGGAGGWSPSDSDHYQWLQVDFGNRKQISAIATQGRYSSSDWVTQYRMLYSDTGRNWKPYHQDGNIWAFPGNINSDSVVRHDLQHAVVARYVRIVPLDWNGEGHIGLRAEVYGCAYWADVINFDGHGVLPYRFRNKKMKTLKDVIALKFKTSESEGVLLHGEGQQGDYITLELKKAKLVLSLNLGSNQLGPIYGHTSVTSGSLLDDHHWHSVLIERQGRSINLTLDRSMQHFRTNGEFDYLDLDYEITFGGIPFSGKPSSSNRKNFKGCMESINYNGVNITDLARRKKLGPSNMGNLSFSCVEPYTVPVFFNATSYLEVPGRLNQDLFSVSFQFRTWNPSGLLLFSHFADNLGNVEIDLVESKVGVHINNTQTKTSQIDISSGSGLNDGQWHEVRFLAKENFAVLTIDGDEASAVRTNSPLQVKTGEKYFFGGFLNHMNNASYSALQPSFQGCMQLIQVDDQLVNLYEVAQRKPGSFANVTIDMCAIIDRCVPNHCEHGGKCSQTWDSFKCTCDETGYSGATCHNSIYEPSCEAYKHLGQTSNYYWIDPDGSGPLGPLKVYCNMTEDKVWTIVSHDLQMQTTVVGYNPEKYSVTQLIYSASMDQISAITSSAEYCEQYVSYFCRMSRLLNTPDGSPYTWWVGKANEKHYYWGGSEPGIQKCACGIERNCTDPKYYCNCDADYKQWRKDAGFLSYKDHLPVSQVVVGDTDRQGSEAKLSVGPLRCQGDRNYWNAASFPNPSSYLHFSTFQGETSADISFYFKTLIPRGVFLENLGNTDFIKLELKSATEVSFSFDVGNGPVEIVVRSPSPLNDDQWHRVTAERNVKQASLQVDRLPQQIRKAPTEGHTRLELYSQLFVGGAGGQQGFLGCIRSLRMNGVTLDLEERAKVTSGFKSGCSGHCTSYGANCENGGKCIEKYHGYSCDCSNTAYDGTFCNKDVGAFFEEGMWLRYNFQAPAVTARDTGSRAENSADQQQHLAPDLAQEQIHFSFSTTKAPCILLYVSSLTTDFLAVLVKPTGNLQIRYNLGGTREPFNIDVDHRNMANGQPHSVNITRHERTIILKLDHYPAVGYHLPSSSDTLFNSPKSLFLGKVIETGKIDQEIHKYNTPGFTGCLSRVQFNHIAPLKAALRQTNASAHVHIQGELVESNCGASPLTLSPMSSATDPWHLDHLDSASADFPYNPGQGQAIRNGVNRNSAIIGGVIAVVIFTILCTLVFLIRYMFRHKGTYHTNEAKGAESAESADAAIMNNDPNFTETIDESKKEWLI
Test: co-IP; lysate of P14 WT mouse cerebellar synaptosomes, immunoprecipitation with anti-Caspr2 antibody or control IgG, immunoblotting for Caspr2 and IP3R1; 4 °C

binding: binds
Substance: type 1 inositol 1,4,5-trisphosphate receptor (IP3R1), endogenous in mouse cerebellar synaptosomes (from UniProt P11881 1-2749)
